In article PMC9249791, “Molecular dissection of the glutamine synthetase-GlnR nitrogen regulatory circuitry in Gram-positive bacteria” (Nature Communications, 2022):
Results are given in words; binding and its absence hold for the method and conditions named. A result given as binding can be weak or reduced; the word gives no strength.

Legend:
[1] = molecular target: T1, Lm GlnR C-tail peptide (L. monocytogenes); assay: cryo-EM structure; GS (0.75-1.0 mg/mL) with 2.5 or 5 mM GlnR C-tail peptide, 30 min at rt; Buffer B (12.5 mM Tris pH 7.5, 20 mM glutamine, 5 mM MgCl2, 150 mM NaCl, 2.5% glycerol, 1 mM BME); both purified
T1 sequence (peptide): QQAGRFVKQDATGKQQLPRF

[2] = molecular target: T2, Pp GlnR C-tail peptide (P. polymyxa); assay: as above
T2 sequence (peptide): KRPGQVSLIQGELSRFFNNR

[3] = molecular target: T3, fluoresceinated Sa GlnR C-tail peptide (S. aureus); assay: fluorescence polarisation; increasing Sa GlnR(1-87) titrated into 1 nM N-terminally fluoresceinated Sa GlnR C-tail peptide; both purified
T3 sequence (peptide, fluorescein on the N-terminus): KPIGETLPINRGDLSRFIK

[4] = molecular target: T4, Sa GlnR C-tail peptide (S. aureus); assay: cryo-EM structure; GS (0.75-1.0 mg/mL) with 2.5 or 5 mM GlnR C-tail peptide, 30 min at rt; Buffer B (12.5 mM Tris pH 7.5, 20 mM glutamine, 5 mM MgCl2, 150 mM NaCl, 2.5% glycerol, 1 mM BME); both purified
T4 sequence (peptide): KPIGETLPINRGDLSRFIK

Q: Which binding [1] does the source give for “Listeria monocytogenes glutamine synthetase (L. monocytogenes) (enzyme)” here?
A: The binding was “binds”.

Q: With “Paenibacillus polymyxa glutamine synthetase (P. polymyxa) (enzyme)” as the substance, how does the binding [2] read?
A: Its binding is “binds”.

Q: With “Sa GlnR(1-87) (from UniProt Q53687) (domain or fragment)” as the substance, how does the binding [3] read?
A: Its binding is “binds”.

Q: “Staphylococcus aureus glutamine synthetase (S. aureus) (enzyme)” was tested. Which binding [4] did it give?
A: The binding was “binds”.
